Assay results reported in article PMC4741384 (2016).
These are yes or no findings as the source states them, for the method shown. Binding seen in cells or lysates may run through a third protein. Some results given as binding are weak or reduced against the parent protein; the word gives no strength.

The chains behind the UniProt entries cited, without tags or fusion partners.
UniProt O95271: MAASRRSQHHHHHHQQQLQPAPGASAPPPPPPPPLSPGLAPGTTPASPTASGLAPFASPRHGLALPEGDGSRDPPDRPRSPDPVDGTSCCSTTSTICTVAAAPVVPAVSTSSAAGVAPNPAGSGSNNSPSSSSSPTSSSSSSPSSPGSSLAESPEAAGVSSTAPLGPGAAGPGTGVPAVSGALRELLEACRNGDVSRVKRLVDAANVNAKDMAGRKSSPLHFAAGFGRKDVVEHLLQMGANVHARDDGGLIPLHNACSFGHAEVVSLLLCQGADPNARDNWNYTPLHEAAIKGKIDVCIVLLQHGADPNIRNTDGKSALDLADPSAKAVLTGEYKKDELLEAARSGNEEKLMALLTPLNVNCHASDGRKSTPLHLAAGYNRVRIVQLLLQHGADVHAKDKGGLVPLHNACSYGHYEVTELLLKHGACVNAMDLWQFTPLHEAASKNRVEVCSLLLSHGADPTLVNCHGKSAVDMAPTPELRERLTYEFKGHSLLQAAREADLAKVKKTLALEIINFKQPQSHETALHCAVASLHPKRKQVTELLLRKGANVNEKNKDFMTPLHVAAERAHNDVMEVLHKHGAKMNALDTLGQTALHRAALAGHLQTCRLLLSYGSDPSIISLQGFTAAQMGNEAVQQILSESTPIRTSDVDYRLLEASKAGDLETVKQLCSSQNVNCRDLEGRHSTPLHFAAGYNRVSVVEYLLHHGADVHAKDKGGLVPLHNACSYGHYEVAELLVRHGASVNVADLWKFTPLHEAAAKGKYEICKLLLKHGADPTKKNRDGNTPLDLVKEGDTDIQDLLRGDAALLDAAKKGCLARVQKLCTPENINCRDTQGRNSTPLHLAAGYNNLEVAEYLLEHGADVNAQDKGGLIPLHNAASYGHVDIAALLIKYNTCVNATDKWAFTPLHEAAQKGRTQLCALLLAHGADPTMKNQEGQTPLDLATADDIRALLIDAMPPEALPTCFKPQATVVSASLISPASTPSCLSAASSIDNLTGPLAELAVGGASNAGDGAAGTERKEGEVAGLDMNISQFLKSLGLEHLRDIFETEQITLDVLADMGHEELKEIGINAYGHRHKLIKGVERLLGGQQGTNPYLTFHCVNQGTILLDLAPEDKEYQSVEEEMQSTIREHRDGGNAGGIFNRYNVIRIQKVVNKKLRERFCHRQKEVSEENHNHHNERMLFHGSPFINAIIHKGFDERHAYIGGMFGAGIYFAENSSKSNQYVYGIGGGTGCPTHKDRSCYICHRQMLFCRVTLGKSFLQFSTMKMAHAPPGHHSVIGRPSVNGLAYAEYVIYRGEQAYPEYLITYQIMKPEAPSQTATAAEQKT

B1: mCherry-lacR-interII (MDC1 800-1130aa) (domain or fragment, UniProt Q14676 800-1130)
chain: MGIQGRGRQTVDKVMGIPKETAERVGPERGPLERETEKLLPERQTDVTGEEELTKGKQDREQKQLLARDTQRQESDKNGESASPERDRESLKVEIETSEEIQEKQVQKQTLPSKAFEREVERPVANRECDPAELEEKVPKVILERDTQRGEPEGGSQDQKGQASSPTPEPGVGAGDLPGPTSAPVPSGSQSGGRGSPVSPRRHQKGLLNCKMPPAEKASRIRAAEKVSRGDQESPDACLPPTVPEAPAPPQKPLNSQSQKHLAPPPLLSPLLPSIKPTVRKTRQDGSQEAPEAPLSSELEPFHPKPKIRTRKSSRMTPFPATSAAPEPHPS
B2: mCherry-lacR-BRCTs (MDC1 1881-2089aa) (domain or fragment, UniProt Q14676 1881-2089)
chain: LRRTKLNQESTAPKVLFTGVVDARGERAVLALGGSLAGSAAEASHLVTDRIRRTVKFLCALGRGIPILSLDWLHQSRKAGFFLPPDEYVVTDPEQEKNFGFSLQDALSRARERRLLEGYEIYVTPGVQPPPPQMGEIISCCGGTYLPSMPRSYKPQRVVITCPQDFPHCSIPLRVGLPLLSPEFLLTGVLKQEAKPEAFVLSPLEMSST

Target: FN-TNKS1 (flag tag and NLS signal, pCDNA 3.1) (human) (UniProt O95271)
Assay: co-IP; HEK293T cells co-transfected with mCherry-lacR constructs and FN-TNKS1; extracts in TENT buffer (25 mM Tris-HCl 7.5, 2 mM EDTA, 150 mM NaCl, 1% Triton X-100); immunoprecipitation with anti-Flag M2, blot with anti-lacR

| Binder | binding |
| --- | --- |
| B1 | binds |
| B2 | binds |
